Values of other authors in patent US6335030B1, “Transdermally administered dextromethorphan as antitussive agent” (Pharmacia & Upjohn AB, priority 1996, dated 2002).
For at least one compound, name, drawing or mass did not settle the structure.

Details: in vivo; cited from earlier work

In the case of `CN1CC[C@@]23CCCC[C@@H]2[C@@H]1Cc1ccc(O)cc13` [dextrorphan], the “cough suppressing effect of demethylated metabolites” value is listed as “have shown cough suppressing effects”.
